In article PMC7075897 one finds binding data, which are given here for 23 substances.

By UniProt entry, the sequences of proteins in these tests, tags left out.
UniProt P25439: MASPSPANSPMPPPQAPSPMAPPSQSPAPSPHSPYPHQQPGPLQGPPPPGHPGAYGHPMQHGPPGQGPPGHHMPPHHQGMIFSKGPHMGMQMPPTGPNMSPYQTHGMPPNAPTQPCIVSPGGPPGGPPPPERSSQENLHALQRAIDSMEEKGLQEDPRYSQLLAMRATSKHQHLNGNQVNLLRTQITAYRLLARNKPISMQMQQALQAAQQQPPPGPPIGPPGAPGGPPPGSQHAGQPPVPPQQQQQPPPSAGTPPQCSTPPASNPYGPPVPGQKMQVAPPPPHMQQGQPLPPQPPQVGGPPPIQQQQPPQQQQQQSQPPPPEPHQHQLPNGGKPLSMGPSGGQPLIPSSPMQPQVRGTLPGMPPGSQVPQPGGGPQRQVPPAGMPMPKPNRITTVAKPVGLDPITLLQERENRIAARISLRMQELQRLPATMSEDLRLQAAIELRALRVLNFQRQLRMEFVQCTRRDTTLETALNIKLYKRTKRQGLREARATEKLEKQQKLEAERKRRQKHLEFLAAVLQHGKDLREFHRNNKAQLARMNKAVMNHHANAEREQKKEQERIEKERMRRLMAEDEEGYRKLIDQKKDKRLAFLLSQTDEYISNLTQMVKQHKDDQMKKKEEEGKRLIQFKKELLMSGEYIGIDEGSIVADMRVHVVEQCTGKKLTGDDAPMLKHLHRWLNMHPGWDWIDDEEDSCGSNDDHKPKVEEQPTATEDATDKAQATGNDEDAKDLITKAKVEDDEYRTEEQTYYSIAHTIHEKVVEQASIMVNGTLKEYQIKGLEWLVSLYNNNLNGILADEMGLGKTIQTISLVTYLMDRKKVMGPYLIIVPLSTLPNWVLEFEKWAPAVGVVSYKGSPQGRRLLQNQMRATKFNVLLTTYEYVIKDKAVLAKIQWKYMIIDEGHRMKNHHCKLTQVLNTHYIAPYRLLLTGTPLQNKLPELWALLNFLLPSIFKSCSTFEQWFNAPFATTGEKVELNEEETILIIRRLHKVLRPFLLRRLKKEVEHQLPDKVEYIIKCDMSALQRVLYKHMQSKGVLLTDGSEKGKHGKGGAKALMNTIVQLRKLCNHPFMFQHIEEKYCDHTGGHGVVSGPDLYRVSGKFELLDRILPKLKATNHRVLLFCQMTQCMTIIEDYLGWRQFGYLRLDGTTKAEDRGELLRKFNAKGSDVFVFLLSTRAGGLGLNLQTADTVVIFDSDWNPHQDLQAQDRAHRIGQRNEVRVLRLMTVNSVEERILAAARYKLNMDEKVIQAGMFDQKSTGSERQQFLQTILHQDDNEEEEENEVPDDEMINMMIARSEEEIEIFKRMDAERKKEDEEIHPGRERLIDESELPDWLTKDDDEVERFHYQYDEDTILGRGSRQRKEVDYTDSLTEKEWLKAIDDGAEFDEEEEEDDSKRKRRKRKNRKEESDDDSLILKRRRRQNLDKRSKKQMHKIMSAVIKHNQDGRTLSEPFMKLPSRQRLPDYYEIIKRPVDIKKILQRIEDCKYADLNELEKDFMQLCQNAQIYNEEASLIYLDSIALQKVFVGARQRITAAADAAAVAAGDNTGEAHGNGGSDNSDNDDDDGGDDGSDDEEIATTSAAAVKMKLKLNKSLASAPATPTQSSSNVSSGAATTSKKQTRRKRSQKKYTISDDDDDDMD
UniProt P51140: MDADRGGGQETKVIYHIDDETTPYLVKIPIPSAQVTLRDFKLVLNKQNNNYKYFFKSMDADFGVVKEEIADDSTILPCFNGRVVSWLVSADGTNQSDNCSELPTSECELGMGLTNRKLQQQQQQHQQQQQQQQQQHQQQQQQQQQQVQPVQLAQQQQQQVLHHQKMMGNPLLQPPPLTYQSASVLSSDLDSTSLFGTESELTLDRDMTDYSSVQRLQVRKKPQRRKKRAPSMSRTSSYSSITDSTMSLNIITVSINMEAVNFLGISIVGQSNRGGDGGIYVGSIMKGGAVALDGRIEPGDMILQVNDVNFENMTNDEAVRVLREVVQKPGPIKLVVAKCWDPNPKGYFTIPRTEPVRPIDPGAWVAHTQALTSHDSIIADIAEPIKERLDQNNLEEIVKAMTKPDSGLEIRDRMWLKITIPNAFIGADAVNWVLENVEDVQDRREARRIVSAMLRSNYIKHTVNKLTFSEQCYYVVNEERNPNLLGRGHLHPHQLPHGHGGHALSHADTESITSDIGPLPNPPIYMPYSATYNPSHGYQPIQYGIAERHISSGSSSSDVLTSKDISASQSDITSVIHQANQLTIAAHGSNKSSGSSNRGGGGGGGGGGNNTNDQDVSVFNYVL
UniProt Q7PLI2: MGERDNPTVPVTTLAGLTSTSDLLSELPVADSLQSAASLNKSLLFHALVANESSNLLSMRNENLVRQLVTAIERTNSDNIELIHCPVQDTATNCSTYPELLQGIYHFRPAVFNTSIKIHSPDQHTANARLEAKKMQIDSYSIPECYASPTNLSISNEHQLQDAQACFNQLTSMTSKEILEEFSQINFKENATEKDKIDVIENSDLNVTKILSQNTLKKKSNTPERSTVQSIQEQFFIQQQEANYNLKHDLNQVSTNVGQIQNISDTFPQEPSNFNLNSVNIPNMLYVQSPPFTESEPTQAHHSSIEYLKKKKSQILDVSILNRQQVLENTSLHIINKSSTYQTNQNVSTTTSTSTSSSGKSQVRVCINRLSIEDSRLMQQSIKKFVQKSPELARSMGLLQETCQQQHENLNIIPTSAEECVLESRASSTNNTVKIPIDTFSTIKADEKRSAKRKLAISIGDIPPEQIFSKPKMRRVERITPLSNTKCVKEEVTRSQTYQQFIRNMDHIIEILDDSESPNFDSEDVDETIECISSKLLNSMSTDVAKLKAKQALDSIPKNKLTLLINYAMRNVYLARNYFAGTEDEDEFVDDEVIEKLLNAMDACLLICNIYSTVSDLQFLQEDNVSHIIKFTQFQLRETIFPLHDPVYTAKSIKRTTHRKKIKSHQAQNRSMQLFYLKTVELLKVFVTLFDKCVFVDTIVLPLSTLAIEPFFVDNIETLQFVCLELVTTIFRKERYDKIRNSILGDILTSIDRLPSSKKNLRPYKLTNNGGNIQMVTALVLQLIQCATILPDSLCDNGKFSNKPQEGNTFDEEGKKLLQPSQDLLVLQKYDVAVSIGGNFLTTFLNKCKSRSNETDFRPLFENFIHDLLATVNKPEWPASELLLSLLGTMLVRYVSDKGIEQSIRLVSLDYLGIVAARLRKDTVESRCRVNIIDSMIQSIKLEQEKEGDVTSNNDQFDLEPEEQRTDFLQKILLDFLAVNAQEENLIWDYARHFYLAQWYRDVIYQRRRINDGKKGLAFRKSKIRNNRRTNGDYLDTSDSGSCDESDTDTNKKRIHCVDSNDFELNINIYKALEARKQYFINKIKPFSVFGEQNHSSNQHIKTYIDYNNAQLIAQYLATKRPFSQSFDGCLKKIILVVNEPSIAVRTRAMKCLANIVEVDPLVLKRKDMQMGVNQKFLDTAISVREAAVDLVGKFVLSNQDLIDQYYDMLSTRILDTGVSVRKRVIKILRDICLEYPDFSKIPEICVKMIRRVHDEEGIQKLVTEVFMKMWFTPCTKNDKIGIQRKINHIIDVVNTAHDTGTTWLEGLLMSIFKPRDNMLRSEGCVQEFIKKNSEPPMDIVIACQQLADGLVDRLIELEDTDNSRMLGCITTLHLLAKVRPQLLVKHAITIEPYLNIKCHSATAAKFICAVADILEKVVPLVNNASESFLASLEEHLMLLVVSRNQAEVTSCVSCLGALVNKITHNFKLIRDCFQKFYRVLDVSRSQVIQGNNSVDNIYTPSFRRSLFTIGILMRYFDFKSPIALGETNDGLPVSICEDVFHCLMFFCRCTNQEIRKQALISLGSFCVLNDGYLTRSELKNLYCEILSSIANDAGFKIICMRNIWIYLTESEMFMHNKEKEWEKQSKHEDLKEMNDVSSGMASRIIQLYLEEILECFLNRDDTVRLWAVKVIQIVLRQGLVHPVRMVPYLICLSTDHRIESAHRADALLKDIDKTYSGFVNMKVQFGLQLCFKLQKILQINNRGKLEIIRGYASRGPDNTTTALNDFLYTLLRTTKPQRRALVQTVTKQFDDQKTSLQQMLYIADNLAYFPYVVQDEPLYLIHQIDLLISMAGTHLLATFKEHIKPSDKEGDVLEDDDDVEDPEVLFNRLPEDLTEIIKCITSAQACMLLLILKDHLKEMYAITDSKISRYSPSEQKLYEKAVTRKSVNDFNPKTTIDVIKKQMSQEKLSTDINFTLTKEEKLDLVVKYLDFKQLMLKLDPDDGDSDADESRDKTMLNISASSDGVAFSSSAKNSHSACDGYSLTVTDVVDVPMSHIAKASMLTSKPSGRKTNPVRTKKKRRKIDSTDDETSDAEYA
UniProt Q94517: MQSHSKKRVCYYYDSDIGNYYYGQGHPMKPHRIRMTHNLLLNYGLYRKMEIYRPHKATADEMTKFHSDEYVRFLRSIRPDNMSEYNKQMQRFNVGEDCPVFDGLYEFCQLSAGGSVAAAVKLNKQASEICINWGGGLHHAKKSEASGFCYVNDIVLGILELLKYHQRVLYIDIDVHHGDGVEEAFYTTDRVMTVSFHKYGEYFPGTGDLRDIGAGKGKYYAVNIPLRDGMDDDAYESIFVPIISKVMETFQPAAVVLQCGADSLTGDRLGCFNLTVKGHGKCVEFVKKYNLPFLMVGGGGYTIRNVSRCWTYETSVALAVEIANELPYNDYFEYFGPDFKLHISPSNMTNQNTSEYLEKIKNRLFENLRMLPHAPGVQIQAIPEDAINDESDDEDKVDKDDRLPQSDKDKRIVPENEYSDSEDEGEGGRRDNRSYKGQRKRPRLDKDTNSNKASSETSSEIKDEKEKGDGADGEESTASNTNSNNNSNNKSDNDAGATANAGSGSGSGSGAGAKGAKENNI
UniProt O46036: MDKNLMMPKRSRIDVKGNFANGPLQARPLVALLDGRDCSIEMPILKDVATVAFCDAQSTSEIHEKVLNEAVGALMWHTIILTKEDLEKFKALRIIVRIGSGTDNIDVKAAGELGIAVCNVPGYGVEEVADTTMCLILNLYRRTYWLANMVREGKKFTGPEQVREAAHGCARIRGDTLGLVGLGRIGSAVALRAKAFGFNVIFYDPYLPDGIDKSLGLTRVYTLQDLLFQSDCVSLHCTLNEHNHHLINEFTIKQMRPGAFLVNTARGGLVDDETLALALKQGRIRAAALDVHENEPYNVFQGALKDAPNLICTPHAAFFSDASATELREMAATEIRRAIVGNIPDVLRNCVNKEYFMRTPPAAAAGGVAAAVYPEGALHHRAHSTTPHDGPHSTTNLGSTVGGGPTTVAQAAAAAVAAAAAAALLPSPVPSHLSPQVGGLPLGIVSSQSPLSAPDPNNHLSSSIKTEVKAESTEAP
UniProt A0A0B4JDA0: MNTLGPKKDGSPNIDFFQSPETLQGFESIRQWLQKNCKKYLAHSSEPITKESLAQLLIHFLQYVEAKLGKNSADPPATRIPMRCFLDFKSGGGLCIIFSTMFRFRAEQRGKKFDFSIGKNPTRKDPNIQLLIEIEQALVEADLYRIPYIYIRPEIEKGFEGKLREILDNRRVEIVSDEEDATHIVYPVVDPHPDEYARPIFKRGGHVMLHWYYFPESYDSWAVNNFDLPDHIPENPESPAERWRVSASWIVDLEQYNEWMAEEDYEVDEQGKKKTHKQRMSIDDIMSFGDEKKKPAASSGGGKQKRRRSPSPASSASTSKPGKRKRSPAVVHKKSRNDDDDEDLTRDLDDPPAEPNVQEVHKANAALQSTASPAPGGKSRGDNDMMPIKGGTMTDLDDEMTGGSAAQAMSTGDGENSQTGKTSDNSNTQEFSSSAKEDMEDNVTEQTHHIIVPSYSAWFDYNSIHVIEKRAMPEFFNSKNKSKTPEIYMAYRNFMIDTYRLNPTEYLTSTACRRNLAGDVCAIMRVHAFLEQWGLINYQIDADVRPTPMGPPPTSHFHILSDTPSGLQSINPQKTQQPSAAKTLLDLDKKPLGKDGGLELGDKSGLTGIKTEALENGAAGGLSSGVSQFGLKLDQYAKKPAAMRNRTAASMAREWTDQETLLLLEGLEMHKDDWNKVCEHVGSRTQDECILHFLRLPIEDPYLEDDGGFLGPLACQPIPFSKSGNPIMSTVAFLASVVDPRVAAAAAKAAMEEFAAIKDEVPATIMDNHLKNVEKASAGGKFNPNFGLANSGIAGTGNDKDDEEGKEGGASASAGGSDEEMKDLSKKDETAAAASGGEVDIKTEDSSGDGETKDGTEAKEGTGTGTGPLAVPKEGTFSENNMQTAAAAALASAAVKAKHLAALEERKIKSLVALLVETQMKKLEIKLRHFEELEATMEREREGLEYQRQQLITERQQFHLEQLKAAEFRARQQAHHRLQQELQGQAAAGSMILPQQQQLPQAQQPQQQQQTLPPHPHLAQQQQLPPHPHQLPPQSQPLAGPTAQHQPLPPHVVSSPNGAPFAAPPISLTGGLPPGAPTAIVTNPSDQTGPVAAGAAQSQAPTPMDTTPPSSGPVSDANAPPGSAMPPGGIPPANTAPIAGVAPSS

The target of test [1] is T1, EcR (isoform A) fused to APEX2 through a 25 nm GS linker, marked with 3xFLAG (Drosophila melanogaster) (UniProt P34021).
T1 sequence: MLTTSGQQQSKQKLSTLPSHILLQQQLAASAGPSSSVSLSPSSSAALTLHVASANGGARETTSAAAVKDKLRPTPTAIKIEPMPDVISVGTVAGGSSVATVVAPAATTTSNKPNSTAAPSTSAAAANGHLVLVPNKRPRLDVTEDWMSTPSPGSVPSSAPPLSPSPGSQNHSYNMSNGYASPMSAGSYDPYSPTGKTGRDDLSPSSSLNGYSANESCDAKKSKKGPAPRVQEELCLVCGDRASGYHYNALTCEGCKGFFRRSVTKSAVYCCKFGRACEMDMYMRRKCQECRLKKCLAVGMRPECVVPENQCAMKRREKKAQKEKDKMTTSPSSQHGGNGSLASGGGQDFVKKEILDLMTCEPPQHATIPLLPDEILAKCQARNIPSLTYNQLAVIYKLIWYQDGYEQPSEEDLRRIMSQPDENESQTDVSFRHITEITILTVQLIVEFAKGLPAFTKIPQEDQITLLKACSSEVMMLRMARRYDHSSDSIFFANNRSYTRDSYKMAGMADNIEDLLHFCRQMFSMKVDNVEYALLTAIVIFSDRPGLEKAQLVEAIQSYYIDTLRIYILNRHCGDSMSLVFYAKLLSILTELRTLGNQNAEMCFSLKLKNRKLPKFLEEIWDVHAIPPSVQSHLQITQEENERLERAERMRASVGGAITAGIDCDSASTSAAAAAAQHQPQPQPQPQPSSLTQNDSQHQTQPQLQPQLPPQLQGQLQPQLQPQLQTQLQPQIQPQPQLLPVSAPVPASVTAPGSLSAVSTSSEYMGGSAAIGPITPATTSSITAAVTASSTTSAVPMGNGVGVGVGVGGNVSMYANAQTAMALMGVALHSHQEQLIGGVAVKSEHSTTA
As to the kind of experiment: proximity labelling; APEX2 fused to EcR or Usp, stably expressed in S2 cells; 20E or DMSO 1 h, biotin-phenol 30 min, 1 mM H2O2 5 min; nuclear extract, Streptavidin-Agarose precipitation, LC-MS/MS.

For test [2], the target named is T2, Usp fused to APEX2 through a 25 nm GS linker, marked with 3xFLAG (Drosophila melanogaster) (UniProt P20153).
T2 sequence: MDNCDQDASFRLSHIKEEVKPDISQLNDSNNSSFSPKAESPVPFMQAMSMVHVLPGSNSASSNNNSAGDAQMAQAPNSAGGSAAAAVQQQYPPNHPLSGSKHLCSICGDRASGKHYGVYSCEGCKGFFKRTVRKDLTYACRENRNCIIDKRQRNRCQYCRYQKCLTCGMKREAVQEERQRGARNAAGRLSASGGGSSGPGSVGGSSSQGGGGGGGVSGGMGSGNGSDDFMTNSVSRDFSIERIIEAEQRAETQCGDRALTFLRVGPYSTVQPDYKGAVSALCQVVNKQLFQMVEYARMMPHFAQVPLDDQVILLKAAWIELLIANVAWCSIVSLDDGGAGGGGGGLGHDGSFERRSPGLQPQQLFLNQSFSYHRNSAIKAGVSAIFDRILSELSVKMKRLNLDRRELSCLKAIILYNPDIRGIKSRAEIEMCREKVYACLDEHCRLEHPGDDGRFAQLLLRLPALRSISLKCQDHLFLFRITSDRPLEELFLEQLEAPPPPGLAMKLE
The description is as above.

The target in test [3] is T3, EcR (isoform A) fused to BioID2 through a 25 nm GS linker, marked with 3xFLAG (Drosophila melanogaster) (UniProt P34021).
T3 sequence: T1 sequence
As to the kind of experiment: proximity labelling; BioID2 fused to EcR or Usp, stably expressed in S2 cells; biotin 50 nM, 20E or DMSO for 14 h; nuclear extract, Streptavidin-Agarose precipitation, LC-MS/MS.

Test [4] has as its target T4, Usp fused to BioID2 through a 25 nm GS linker, marked with 3xFLAG (Drosophila melanogaster) (UniProt P20153).
T4 sequence: T2 sequence
Described as above.

The target of test [5] is T1, EcR (isoform A) fused to APEX2 through a 25 nm GS linker, marked with 3xFLAG (Drosophila melanogaster). Put plainly: proximity labelling; APEX2 fusions or APEX2 alone in S2 cells, 20E or DMSO 1 h; streptavidin precipitates of nuclear lysates analysed by western blot. (In general: Immunoblotting shows a protein as a band on a membrane.)
Test [6] concerns the target T2, Usp fused to APEX2 through a 25 nm GS linker, marked with 3xFLAG (Drosophila melanogaster). The description is as above.
Test [7] concerns the target T3, EcR (isoform A) fused to BioID2 through a 25 nm GS linker, marked with 3xFLAG (Drosophila melanogaster). As to the kind of experiment: proximity labelling; BioID2 fusions or BioID2 alone in S2 cells, 20E or DMSO 14 h; streptavidin precipitates of nuclear lysates analysed by western blot.
Test [8] concerns the target T4, Usp fused to BioID2 through a 25 nm GS linker, marked with 3xFLAG (Drosophila melanogaster). The test is described as above.

Results are given in words; binding and its absence hold for the method and conditions named. Binding seen in cells or lysates may run through a third protein. A yes stands for co-enrichment or nearness to the bait. Other partners may have been found. Where a sequence is shown, tags or fusion partners need not be part of it.

For Sin3a (from UniProt A0A0B4K765 1-2066), the binding entry in test [1] and in test [2] was “binds” throughout.

As to Spt6 (from UniProt Q9W420 1-1831), the binding entry in test [1] and in test [2] was “binds” in each case.

Take Rm62 (from UniProt P19109 1-719): the binding entry in test [3] and in test [4] was “binds” throughout.

As for CG14712 (from UniProt Q9VGL0), the binding result in test [3] and in test [4] was “binds” in each case.

In the case of Spt5 (from UniProt Q9V460 1-1078), the binding result in test [5] and in test [6] was “binds” throughout.

Turning to Mi-2 (from UniProt O97159 1-1982), the binding result in test [5] and in test [1] was “binds” in each case.

As to Brm (from UniProt P25439 1-1638), the binding result in test [5], in test [6] and in test [2] was “binds” in each case.

As for Dsh (from UniProt P51140 1-623), the binding result in test [3] and in test [4] was “binds” in each case.

For Nipped-B (from UniProt Q7PLI2 1-2077), the binding entry in test [1] and in test [2] was “binds” each time.

As for Rpd3 (from UniProt Q94517 1-521), the binding result in test [1] and in test [2] was “binds” throughout.

Regarding CtBP (from UniProt O46036 1-476), the binding entry in test [3] and in test [4] was “binds” each time.

Take RPII215 (from UniProt D0Z769): the binding entry in test [1] and in test [2] was “binds” throughout.

Regarding l(3)72Ab (from UniProt Q9VUV9 1-2142), the binding entry in test [1] and in test [2] was “binds” throughout.

Regarding hyd (from UniProt P51592 1-2885), the binding entry in test [1] and in test [2] was “binds” throughout.

As to Nup214 (from UniProt Q9W1X4 1-1711), the binding result in test [3] and in test [4] was “binds” each time.

Take Nup205 (from UniProt Q8IQV9 1-2090): the binding result in test [1] and in test [2] was “binds” throughout.

Take Kismet (from UniProt B7Z002 1-5517): in test [2], the binding entry is “binds”.

In the case of CG4119 (from UniProt Q9V3Y5), the binding entry in test [1] and in test [2] was “binds” throughout.

Turning to Mor (from UniProt A0A0B4JDA0 1-1145), the binding entry in test [5], in test [6], in test [7], in test [8], in test [3] and in test [4] was “binds” each time. Moreover, in test [2], the binding result is on record as “binds”.

As for E(bx) (from UniProt E1JHV6), in test [2], the binding entry was “binds”.

As to Prp8 (from UniProt A1Z8U0 1-2396), the binding result in test [1] and in test [2] was “binds” throughout.

bel (from UniProt Q9VHP0 1-798): in test [3], the binding result is “binds”.

Osa (from UniProt Q8IN94 1-2716): the binding entry in test [1] and in test [2] was “binds” in each case.
